Here are results for one substance from patent US20120178908A1 (Novo Nordisk, published 2012).

Sequences of proteins named here, by UniProt entry; tags and fusion partners are left off. A change or cut given only in a name is not applied to a line headed by its entry.
UniProt P02671: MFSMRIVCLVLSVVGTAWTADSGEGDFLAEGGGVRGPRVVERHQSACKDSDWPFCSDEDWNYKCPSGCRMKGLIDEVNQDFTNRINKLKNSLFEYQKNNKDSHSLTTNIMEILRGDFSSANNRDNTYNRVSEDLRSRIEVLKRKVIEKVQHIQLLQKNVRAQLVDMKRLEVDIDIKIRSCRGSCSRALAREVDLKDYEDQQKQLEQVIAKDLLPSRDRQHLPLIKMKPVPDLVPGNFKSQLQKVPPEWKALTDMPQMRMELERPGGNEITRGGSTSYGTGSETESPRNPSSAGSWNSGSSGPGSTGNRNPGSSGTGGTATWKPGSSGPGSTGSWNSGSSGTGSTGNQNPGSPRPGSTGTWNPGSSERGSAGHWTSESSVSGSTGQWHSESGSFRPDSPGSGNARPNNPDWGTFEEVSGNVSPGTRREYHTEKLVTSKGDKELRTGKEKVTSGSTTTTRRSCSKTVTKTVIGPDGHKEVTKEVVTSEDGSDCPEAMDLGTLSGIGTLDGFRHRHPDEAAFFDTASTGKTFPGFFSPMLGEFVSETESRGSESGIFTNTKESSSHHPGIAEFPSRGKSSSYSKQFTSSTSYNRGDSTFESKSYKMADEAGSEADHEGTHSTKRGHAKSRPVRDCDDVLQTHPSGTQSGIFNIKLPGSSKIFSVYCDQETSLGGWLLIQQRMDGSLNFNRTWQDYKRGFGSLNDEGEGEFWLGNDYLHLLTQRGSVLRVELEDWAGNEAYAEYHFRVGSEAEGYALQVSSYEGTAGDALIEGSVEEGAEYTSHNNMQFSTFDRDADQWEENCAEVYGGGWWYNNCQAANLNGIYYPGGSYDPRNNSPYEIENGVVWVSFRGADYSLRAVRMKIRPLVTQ

No constants are given. Whether binding was seen depends on the method and setting. Some binding calls cover weakened binding; strength is not graded here.

The target in this experiment is T1, TLT1 (human TLT-1, reagent of the SPR studies, source NN) (human) (UniProt Q86YW5).
T1 sequence: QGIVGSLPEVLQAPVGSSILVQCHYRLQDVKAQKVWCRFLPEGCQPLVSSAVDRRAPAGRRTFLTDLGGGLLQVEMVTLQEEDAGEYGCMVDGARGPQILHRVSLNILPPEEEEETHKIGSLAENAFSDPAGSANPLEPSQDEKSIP
Kind of experiment: SPR (Biacore T100). On the technique in general: Surface plasmon resonance follows binding to a sensor surface in real time, without labels.

Take “human fibrinogen (HCI-0150R, Haematologic Technologies) (from UniProt P02671 20-629; P02675 31-491; P02679 27-437) (ligand)”: the binding result is reported as “binds”.
